According to publication PMC8366970:
Results are given in words; binding and its absence hold for the method and conditions named. Binding seen in cells or lysates may run through a third protein. Binding calls can cover weak binding; strength is not graded here.

Amino acid sequences for entries named in this document (tags omitted). A change or cut given only in a name is not applied to a line headed by its entry.
UniProt Q8ILP4: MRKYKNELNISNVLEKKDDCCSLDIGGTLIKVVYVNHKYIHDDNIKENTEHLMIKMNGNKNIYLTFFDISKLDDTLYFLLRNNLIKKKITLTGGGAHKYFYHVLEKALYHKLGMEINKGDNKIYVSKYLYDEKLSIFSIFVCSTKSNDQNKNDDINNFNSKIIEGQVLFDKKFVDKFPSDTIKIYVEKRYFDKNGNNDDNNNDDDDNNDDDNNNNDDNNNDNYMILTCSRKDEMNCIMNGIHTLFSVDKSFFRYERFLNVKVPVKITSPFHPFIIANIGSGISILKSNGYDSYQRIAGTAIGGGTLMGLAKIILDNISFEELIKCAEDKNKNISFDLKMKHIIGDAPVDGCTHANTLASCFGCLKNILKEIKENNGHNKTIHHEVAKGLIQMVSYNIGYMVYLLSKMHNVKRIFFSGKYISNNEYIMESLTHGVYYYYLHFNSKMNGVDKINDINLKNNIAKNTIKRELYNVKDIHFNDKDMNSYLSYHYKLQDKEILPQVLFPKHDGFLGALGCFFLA
UniProt Q8IL92: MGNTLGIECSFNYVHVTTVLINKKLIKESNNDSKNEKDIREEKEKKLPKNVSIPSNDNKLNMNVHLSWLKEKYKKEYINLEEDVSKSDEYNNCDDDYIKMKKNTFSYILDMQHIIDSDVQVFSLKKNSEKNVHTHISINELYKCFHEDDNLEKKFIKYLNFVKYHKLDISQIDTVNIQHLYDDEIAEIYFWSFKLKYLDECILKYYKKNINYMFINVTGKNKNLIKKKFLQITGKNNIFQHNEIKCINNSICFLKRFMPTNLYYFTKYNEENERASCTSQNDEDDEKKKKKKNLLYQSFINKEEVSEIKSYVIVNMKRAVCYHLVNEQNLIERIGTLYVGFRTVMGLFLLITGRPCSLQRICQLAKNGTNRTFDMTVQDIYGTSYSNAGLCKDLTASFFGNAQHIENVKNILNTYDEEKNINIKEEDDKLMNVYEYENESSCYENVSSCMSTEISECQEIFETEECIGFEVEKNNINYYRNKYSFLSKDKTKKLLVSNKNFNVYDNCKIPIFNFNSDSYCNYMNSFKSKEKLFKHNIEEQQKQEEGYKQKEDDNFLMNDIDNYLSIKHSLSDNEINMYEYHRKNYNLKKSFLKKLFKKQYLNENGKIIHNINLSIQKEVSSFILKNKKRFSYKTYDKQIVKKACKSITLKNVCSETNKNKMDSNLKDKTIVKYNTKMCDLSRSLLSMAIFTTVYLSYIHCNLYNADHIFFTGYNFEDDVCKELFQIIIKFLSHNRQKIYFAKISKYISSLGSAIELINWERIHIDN

Assays:
[1] = molecular target: TgPanK2-mAIDHA (Toxoplasma gondii) (UniProt V5B595); assay: co-IP; GFP-Trap and anti-HA beads on T. gondii tachyzoite lysates; denaturing western blots with anti-GFP, anti-HA and pan-14-3-3 antibodies
[2] = molecular target: TgPanK2-GFP (Toxoplasma gondii) (UniProt V5B595); assay: as above
[3] = molecular target: PfPanK1-GFP (Plasmodium falciparum) (UniProt Q8ILP4); assay: co-IP; GFP-Trap immunoprecipitation from lysates of saponin-isolated P. falciparum trophozoites; denaturing western blot with pan-specific anti-14-3-3 antibody
[4] = molecular target: PfPanK2-GFP (Plasmodium falciparum) (UniProt Q8IL92); assay: as above

Molecule: TgPanK1-GFP (from UniProt A0A125YTW9) (enzyme)
- binding [1]: binds

Molecule: TgPanK1-HA (from UniProt A0A125YTW9) (enzyme)
- binding [2]: binds

B1: Pf14-3-3I (protein, UniProt C0H4V6 1-262)
chain: MATSEELKQLRCDCTYRSKLAEQAERYDEMADAMRTLVEQCVNNDKDELTVEERNLLSVAYKNAVGARRASWRIISSVEQKEMSKANVHNKNVAATYRKKVEEELNNICQDILNLLTKKLIPNTSESESKVFYYKMKGDYYRYISEFSCDEGKKEASNCAQEAYQKATDIAENELPSTHPIRLGLALNYSVFFYEILNQPHQACEMAKRAFDDAITEFDNVSEDSYKDSTLIMQLLRDNLTLWTSDLQGDQTEEKSKDEGLE
- binding [3]: binds
- binding [4]: binds
